In publication PMC6376265, “A sequence conserved between CD5 and CD6 binds an FERM domain and exerts a restraint on T‐cell activation” (Immunology, 2018) one finds binding data, which are given here for one substance.

By UniProt entry, the sequences of proteins in these tests, tags left out. Residues count along the entry.
UniProt P26043, residues 1-310: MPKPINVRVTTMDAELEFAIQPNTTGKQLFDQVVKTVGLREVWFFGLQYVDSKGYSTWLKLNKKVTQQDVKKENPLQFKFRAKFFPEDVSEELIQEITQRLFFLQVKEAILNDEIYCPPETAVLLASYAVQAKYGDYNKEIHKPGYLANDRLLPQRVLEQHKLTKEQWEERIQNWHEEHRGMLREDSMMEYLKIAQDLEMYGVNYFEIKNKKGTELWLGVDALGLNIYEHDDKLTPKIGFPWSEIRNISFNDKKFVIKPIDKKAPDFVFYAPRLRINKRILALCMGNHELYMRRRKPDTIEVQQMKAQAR

For experiment [1], the target named is T1, CD5 SDSDY peptide (human).
T1 sequence (peptide, biotinylated at the N terminus): PDNSSDSDYDLHGAQRL
Kind of experiment: SPR; biotinylated peptides immobilized on streptavidin-coated CM5 chips, BIAcore 3000; radixin FERM injected at 37°; streptavidin flow cell subtracted; equilibrium binding fitted with a 1:1 Langmuir model; both purified.

Experiment [2] concerns the target T2, CD6 SDSDY peptide (human).
T2 sequence (peptide, biotinylated at the N terminus): GSDSDYEHYDFSAQ
The experiment is described as above.

These are yes or no findings as the source states them, for the method shown. Some results given as binding are weak or reduced against the parent protein; the word gives no strength.

As to “radixin FERM domain (amino acid residues 1-310) (from UniProt P26043 1-310) (domain or fragment)”, the binding result in experiment [1] and in experiment [2] was “binds weakly” throughout.
